# Measurements: PubChem BioAssay AID2685 (National Center for Advancing Translational Sciences (NCATS), 2010)
# This is one part of the list. Further columns of the screen follow, without active or inactive calls. The list favours compounds with an active or inconclusive main result. The note in brackets gives the kind of curve behind each potency; many fits are weak.
# Experiment: qHTS Assay for Lipid Storage Modulators in Drosophila S3 Cells;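 on cell number change: cells counted by Cell Tracker Red CMTPX staining in the red channel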
# Conditions: BODIPY lipid droplet fluorescence, 18-24 h; for cell number change: measured here: cell count max response, cells fed with added oleic acid
# Summary of the method: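 Laser-scanning cytometry quantifies lipid droplet accumulation (500–530 nm total intensity; droplet/cell object ratio) in oleic acid-fed (400 uM added) Drosophila S3 cells treated with a concentration series. 20 uM Triacsin C defined 100% inhibition.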
# [1] = measured here: cell number channel AC50, cells fed with added oleic acid
# [2] = measured here: lipid fluorescence (Fed channel) AC50, cells fed with added oleic acid
Structure (SMILES),cell number change [%],AC50 [1],AC50 [2]
COc1cc(N2CCCC2)c(OC)cc1/C=C(/C#N)c1cccc(Br)c1,-64.3,"29.1 µM [falling, single point]","29.1 µM [falling, single point]"
COc1ccccc1C(=O)NCCCNC(=O)c1ccccn1,-13.3,,
Cc1nn(C)cc1C=NCCOCc1ccccc1,-15.6,,"2.91 µM [rising, single point]"
CCCN(CCO)CCCc1ccccc1,-92.1,"23.1 µM [falling, partial curve]",
CCN(C(=O)COC(=O)CCc1ccccc1OC)c1c(N)n(Cc2ccccc2)c(=O)[nH]c1=O,-10.2,"0.146 µM [falling, full curve]","0.164 µM [falling, full curve]"
Cc1ccccc1-n1nnnc1SCC(N)=O,6.84,,"0.0366 µM [falling, full curve, poor fit]"
CCOC(=O)c1nc2cc3n(c(C)c-2c1C)C(C)C(C)=C3C (configuration not stated),96.6,"18.4 µM [rising, partial curve]",
COc1ccc(OCCOc2ccc(/C=C3\C(=N)N4N=C(C)SC4=NC3=O)cc2)cc1,4.95,,"0.411 µM [rising, full curve, poor fit]"
Cc1ccc(C(=O)N2N=C(c3ccc(Br)cc3)CC2c2ccccc2O)cc1 (configuration not stated),-58.7,"18.4 µM [falling, partial curve, poor fit]","0.731 µM [falling, full curve]"
Cn1cnnc1SCC(=O)Nc1ccccc1Oc1ccccc1,-10.7,,
O=C(NCc1ccc2c(c1)OCO2)c1ccc2c(c1)C(=O)N(Cc1cccnc1)C2=O,,"2.31 µM [rising, partial curve]","2.06 µM [rising, partial curve]"
CCCCNc1nc(N)ncc1[N+](=O)[O-],0.82,,"0.651 µM [falling, full curve, poor fit]"
CCC(C)Sc1nnc(Cc2cc(=O)[nH]c(=O)[nH]2)n1-c1ccc(F)cc1 (configuration not stated),8.22,,
O=C(CNS(=O)(=O)c1ccc([N+](=O)[O-])cc1)N/N=C\c1ccc(O)cc1,19,,"20.6 µM [falling, partial curve, poor fit]"
COC(=O)c1ccc(NC(=S)N2CCN(Cc3cccc(C)c3)CC2)cc1,,,"23.1 µM [rising, single point]"
CCOc1ccccc1N(C)C(=O)c1cn(C)c(=O)c2ccccc12,19.4,,"9.2 µM [rising, partial curve]"
COc1ccccc1C1C(C(=O)c2cc3ccccc3o2)=C(O)C(=O)N1CCN1CCOCC1 (configuration not stated),8.19,,"0.146 µM [falling, full curve, poor fit]"
O=C1C(c2ccccc2)SC(=Nc2ccccc2)N1S(=O)(=O)c1ccccc1 (configuration not stated),5.9,,"23.1 µM [falling, single point]"
O=C(O)c1ccc(N2C(=O)c3cccnc3C2=O)cc1,-11.8,,"23.1 µM [falling, partial curve]"
Cc1cc(NC(=O)Cn2nc(C)c([N+](=O)[O-])c2C)no1,-40.8,"7.31 µM [falling, single point]",
CN(CC(=O)Nc1ccc(F)cc1)C(=O)CCc1ccccc1,6.05,,

Structure (SMILES),cell number change [%],AC50 [1],AC50 [2]
CCCCOc1ccc(C2(C)NC(=O)NC2=O)cc1 (configuration not stated),14.4,,"0.146 µM [falling, full curve]"
N#Cc1ccc(NC(=O)CSc2nc3[nH]c(=O)cc(O)c3s2)cc1,-19.9,"0.0326 µM [falling, full curve, poor fit]",
S=c1[nH]nc(-c2n[nH]c3c2CCC3)n1/N=C/C=C/c1ccco1,28.2,,"6.51 µM [rising, full curve, poor fit]"
Nc1nc(SCC(=O)NCCOCCO)nc2sc3c(c12)CCCC3,15,,"0.82 µM [falling, full curve, poor fit]"
COc1cc(/C=N/NC(=O)Cn2nc([N+](=O)[O-])cc2C)cc(Br)c1OCc1ccccc1,,,"0.58 µM [rising, single point]"
COc1cc(OC)cc(C(=O)Nc2ccc3c(c2)OCCO3)c1,,,"29.1 µM [falling, single point]"
Cc1cccc(NC(=O)CSCC(=O)N2CCN(Cc3ccc4c(c3)OCO4)CC2)c1,,,"0.58 µM [rising, single point]"
COCCCn1c(=O)c2ccccc2n(Cc2cc(C(=O)OC)ccc2OC)c1=O,-6.04,,"6.51 µM [falling, single point]"
CCc1ccc(OCCCC(=O)Nc2ccc(N3CCCCC3)cc2)cc1,-7.13,,
COc1cc(CNc2ccc(O)cc2)cc(Br)c1OCc1ccccc1F,-3.92,,"16.4 µM [falling, single point]"
CCO[C@@H]1c2c(ccc3ccc(=O)oc23)OC(C)(C)[C@@H]1O,-21.1,"0.651 µM [falling, full curve, poor fit]",
NCCCCCC(=O)N/N=C/c1ccc2nccnc2c1,-13.3,,"13 µM [falling, partial curve]"
COc1cc(NS(=O)(=O)c2ccc(F)cc2)c(OC)cc1NC(C)=O,-2.83,,"0.164 µM [rising, full curve, poor fit]"
CN(CC(=O)Nc1cccc(F)c1)C(=O)c1ccc(N2CCCC2)c([N+](=O)[O-])c1,,,"18.4 µM [rising, single point]"
O=c1[nH]cnc2c1sc1nc(C(F)F)cc(-c3ccccc3)c12,-6.1,,"3.66 µM [rising, full curve]"
CCc1cccc(CC)c1NC(=S)NC(C)c1ccccc1 (configuration not stated),9.15,"6.51 µM [rising, single point]","32.6 µM [falling, single point]"
Cn1c(=O)c2c(-c3ccc(C(C)(C)C)cc3)n(CC3CCCO3)cc2n(C)c1=O (configuration not stated),-0.153,,"0.00461 µM [falling, full curve, poor fit]"
Cc1nnc(SC(C)C(=O)Nc2ccc3ccccc3c2)[nH]c1=O (configuration not stated),5.22,,"29.1 µM [rising, single point]"
CC(C)C(=O)Nc1ccc(C(=O)Nc2nnc(C(C)(C)C)s2)cc1,-2.23,,
O=C(Nc1nc(COc2ccccc2)cs1)C12CC3CC(CC(C3)C1)C2,77.3,"29.1 µM [rising, single point]","20.6 µM [rising, partial curve]"
COc1ccc(C2N(c3ccccc3)C(=S)N3CCCN23)cc1 (configuration not stated),-11,,"0.00651 µM [falling, full curve, poor fit]"

# 5 of these compounds in another layout.
Structure (SMILES)	cell number change [%]	AC50 [1]	AC50 [2]
S=c1[nH]nc(-c2n[nH]c3c2CCC3)n1/N=C/C=C/c1ccco1	28.2		6.51 µM [rising, full curve, poor fit]
Nc1nc(SCC(=O)NCCOCCO)nc2sc3c(c12)CCCC3	15		0.82 µM [falling, full curve, poor fit]
COc1cc(/C=N/NC(=O)Cn2nc([N+](=O)[O-])cc2C)cc(Br)c1OCc1ccccc1			0.58 µM [rising, single point]
COc1cc(OC)cc(C(=O)Nc2ccc3c(c2)OCCO3)c1			29.1 µM [falling, single point]
Cc1cccc(NC(=O)CSCC(=O)N2CCN(Cc3ccc4c(c3)OCO4)CC2)c1			0.58 µM [rising, single point]

# Further compounds follow:

Structure (SMILES),cell number change [%],AC50 [1],AC50 [2]
CCN(CC(=O)NC1CCS(=O)(=O)C1)S(=O)(=O)c1cc([N+](=O)[O-])ccc1C (configuration not stated),1.5,,"29.1 µM [rising, single point]"
COc1ccc(N/C(=N/c2nc(C)cc(C)n2)NC(=O)Nc2ccc(Cl)c(Cl)c2)c(OC)c1,,,"0.058 µM [rising, full curve, poor fit]"
COc1cccc(CN(C(=O)c2cnccn2)C(C(=O)NC2CCCCC2)c2cc(OC)c(OC)c(OC)c2)c1 (configuration not stated),8.26,,"6.51 µM [falling, single point]"
COc1cc(-c2noc(C)c2C#Cc2ccc(N)cc2)cc(OC)c1OC,-23.3,,
Cc1ccccc1Nc1c(-c2ccccc2)nc2ncccn12,23.9,,"6.51 µM [rising, partial curve, poor fit]"
O=C(/C=C/c1ccc(N2CCCCC2)c([N+](=O)[O-])c1)c1ccc(S(=O)(=O)N2CCCC2)cc1,,"6.51 µM [falling, partial curve, poor fit]","6.51 µM [falling, single point]"
CC(O)c1cccc(NC2=CC(=O)CC(C)(C)C2)c1 (configuration not stated),2.99,,"8.2 µM [rising, partial curve]"
CCOCCCn1c(=NC(=O)c2cccnc2)c(C(=O)OCC)cc2c(=O)n3ccccc3nc21,18,"0.259 µM [rising, full curve]","0.366 µM [rising, full curve]"
CC(=O)Oc1ccc(OC(C)=O)c(S(=O)(=O)c2ccc(C)c(C)c2)c1,41.4,"7.31 µM [rising, partial curve]",
Cc1ccc(C(=O)N2CCN(c3ccccc3Cl)CC2)cc1[N+](=O)[O-],,"3.66 µM [falling, partial curve]",
COC(=O)c1sccc1N/N=C/c1cccc(OC)c1O,11.8,,"2.31 µM [rising, partial curve, poor fit]"
CC(C)CNC(=O)c1ccccc1-c1ccccc1C(=O)O,-22.6,,"6.51 µM [falling, single point]"
CC1C/C(=N/O)C(C)CN1 (configuration not stated),-0.809,,
O=C(COc1ccc([N+](=O)[O-])cc1)Nc1nnc(-c2cccnc2)s1,-28.3,,"18.4 µM [falling, single point]"
CCCCn1c(N)c(N(CC)C(=O)c2cccc(OC)c2)c(=O)[nH]c1=O,16.9,,"25.9 µM [falling, single point]"
COc1ccc(OC)c(NC(=O)CN(c2ccc(OC)c(Cl)c2)S(C)(=O)=O)c1,-31.2,"0.13 µM [falling, full curve]",
O=C(NC1CCCCC1)N1CCN(c2ncccn2)CC1,117,,"1.64 µM [falling, partial curve]"
O=C(O)c1ccc(CNS(=O)(=O)c2ccc3ccccc3c2)cc1,20.7,,"0.58 µM [falling, single point]"
Cc1cccc(C)c1NS(=O)(=O)c1ccc(-c2ccc(=O)[nH]n2)o1,,,"14.6 µM [falling, partial curve]"
